# Source: publication PMC7801473 (2021)
# No constants are given. Whether binding was seen depends on the method and setting. Binding can be weak; no strength is given. Sequences can lack the tags named with a protein.
# Target: GAL4 DNA-binding domain (BD)-ASC^CARD fusion (human)
# Assay: two-hybrid; yeast two-hybrid (GAL4 Matchmaker), pGBK-T7 and pGAD-T7 in S. cerevisiae AH109, growth on -His/-Leu/-Trp plates, 30 °C
row,Binder,binding
1,"NLRP1^CARD-SI (Y2H fusion) (domain or fragment, UniProt Q9C000-1 1374-1463) DAPQLLHFVDQYREQLIARVTSVEVVLDKLHGQVLSQEQYERVLAENTRPSQMRKLFSLSQSWDRKCKDGLYQALAETHPHLIAELAAKG",binds
2,"NLRP1^CARD-AI (Y2H fusion) (domain or fragment, UniProt Q9C000-1 1374-1463) DAPQLLHFVDQYREQLIAAVTSVEVVLDKLHGQVLSQEQYERVLAENTAPSQMAKLFSLSQSWDRKCKDGLYQALKETHPHLIMELWEKG",no binding
3,"NLRP1^CARD-SI-AI (Y2H fusion) (domain or fragment, UniProt Q9C000-1 1374-1463) DAPQLLHFVDQYREQLIAAVTSVEVVLDKLHGQVLSQEQYERVLAENTAPSQMAKLFSLSQSWDRKCKDGLYQALAETHPHLIAELAAKG",no binding
